Measurements published in article PMC11847685.
These are yes or no findings as the source states them, for the method shown. Binding seen in cells or lysates may run through a third protein. Some binding calls cover weakened binding; strength is not graded here.

Sequences of proteins named here, by UniProt entry; tags and fusion partners are left off. A change or cut given only in a name is not applied to a line headed by its entry. Residues count along the entry.
UniProt P06401: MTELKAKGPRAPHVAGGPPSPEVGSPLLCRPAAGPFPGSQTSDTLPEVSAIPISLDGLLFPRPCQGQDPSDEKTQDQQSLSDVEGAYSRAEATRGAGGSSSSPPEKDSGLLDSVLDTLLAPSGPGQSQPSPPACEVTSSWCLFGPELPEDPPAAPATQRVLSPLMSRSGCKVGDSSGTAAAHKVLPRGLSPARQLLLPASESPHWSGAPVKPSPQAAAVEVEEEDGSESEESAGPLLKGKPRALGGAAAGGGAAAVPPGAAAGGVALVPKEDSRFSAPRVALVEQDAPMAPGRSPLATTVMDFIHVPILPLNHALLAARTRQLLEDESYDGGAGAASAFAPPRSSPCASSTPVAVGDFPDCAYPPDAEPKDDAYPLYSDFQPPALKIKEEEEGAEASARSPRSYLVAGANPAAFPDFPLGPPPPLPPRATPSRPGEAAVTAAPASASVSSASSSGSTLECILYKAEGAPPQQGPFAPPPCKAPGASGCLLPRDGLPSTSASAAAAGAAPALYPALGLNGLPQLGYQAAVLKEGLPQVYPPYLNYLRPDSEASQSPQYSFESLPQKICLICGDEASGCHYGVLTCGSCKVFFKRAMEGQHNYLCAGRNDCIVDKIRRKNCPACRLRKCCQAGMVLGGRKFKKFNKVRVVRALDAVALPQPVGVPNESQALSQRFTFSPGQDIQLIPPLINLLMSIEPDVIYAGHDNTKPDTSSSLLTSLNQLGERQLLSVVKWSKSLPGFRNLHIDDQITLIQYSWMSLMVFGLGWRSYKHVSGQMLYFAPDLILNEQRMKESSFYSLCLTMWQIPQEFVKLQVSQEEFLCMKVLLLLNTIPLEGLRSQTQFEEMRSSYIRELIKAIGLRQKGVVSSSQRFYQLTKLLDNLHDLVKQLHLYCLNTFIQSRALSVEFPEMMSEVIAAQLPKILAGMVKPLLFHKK
progesterone receptor isoform A (PRA): residues 165-933 of P06401
UniProt P41240: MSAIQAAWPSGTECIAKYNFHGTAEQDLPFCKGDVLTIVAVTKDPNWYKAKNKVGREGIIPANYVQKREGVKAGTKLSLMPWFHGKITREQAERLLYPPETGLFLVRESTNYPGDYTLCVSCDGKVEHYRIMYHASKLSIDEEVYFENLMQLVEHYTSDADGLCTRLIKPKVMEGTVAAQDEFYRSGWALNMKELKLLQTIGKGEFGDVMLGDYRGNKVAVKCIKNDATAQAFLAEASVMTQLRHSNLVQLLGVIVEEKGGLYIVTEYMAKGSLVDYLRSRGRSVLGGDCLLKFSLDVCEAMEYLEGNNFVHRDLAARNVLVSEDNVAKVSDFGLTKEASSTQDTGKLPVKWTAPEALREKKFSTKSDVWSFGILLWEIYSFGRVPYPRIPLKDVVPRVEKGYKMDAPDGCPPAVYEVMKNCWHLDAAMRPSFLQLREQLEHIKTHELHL
UniProt Q03135: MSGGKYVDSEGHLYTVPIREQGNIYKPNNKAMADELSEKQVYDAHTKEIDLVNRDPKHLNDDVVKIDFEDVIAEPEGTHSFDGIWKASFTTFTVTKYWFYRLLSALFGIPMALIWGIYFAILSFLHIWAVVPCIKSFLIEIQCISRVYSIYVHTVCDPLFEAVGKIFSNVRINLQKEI

Tests used:
[1] = target: progesterone receptor (PR) (human (endogenous in T47D, MCF-7 and BT-483)) (UniProt P06401); assay: co-IP; endogenous proteins of T47D, MCF-7 and BT-483 cell extracts (200 ug protein), primary antibody (2 ug) and protein A agarose beads, washed 5 times with lysis buffer and once with PBS, Western blot; cells with or without P4 (50 nM), with NT siRNA or SHP2 siRNA
[2] = target: Csk (human (endogenous in T47D, MCF-7 and BT-483)) (UniProt P41240); assay: as above

Row | binding [1] | binding [2] | Substance
1 | binds |  | Csk (from UniProt P41240 1-450) (enzyme)
2 | binds |  | caveolin-1 (from UniProt Q03135 1-178)
3 |  | binds | phosphorylated progesterone receptor isoform A (p-PRA) (from UniProt P06401-2 1-769)
4 |  | binds | progesterone receptor isoform A (PRA) (from UniProt P06401-2 1-769)
